The subject of data set [1] is RPA (wild type) (Homo sapiens). The data set is described as follows: HDX-MS. The settings on record: recombinant protein; single-stranded DNA.
Data set [2] has as its system RPA S384D (Homo sapiens). The data set is described as follows: HDX-MS. Conditions: recombinant protein; single-stranded DNA.
Data set [3] has as its system RPA S384D (Homo sapiens). The data set is described as follows: stopped-flow Trp fluorescence (koff/kon). Conditions: kon 1.9e10 M-1 s-1, koff 65 s-1 as printed; Stopped flow: 30 mM HEPES pH 7.8, 100 mM KCl, 5 mM MgCl2, 6% glycerol, 1 mM b-ME, 25 C; recombinant protein; single-stranded DNA.

Chains of the proteins cited; added tags and fusions are not shown. Where a name states a change or a piece, a line headed by the entry shows the natural chain unless it says otherwise. A line that says so, or that is headed by a name, gives the form on record, which may keep a tag or linker.
RPA (wild type) (Homo sapiens), one chain, as listed by the source, chain 2 of 3: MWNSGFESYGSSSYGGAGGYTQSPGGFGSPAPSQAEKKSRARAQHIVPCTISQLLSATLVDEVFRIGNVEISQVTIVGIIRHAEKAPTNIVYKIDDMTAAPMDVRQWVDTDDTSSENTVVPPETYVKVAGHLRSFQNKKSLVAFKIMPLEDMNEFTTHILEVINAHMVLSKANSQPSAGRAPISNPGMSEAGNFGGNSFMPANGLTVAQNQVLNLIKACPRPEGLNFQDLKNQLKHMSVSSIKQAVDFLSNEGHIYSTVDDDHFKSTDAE
RPA (wild type) (Homo sapiens), one chain, as listed by the source, chain 1 of 3: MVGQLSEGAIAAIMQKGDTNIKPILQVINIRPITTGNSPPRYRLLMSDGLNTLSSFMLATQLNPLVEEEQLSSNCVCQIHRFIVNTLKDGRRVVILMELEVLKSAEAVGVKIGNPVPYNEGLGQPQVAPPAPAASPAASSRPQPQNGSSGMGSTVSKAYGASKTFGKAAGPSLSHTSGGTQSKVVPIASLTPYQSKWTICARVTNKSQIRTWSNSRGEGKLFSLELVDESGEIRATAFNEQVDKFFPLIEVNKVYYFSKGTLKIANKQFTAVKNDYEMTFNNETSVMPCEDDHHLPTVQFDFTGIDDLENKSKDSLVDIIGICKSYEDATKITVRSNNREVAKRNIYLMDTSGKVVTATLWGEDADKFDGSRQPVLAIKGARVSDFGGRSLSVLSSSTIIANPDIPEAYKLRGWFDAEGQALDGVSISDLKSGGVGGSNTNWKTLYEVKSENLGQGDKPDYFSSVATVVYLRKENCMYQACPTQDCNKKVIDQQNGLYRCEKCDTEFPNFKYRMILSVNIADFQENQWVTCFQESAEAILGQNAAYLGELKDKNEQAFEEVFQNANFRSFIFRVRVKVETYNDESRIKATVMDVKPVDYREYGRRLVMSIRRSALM
RPA S384D (Homo sapiens), one chain, as listed by the source S384D, chain 1 of 3: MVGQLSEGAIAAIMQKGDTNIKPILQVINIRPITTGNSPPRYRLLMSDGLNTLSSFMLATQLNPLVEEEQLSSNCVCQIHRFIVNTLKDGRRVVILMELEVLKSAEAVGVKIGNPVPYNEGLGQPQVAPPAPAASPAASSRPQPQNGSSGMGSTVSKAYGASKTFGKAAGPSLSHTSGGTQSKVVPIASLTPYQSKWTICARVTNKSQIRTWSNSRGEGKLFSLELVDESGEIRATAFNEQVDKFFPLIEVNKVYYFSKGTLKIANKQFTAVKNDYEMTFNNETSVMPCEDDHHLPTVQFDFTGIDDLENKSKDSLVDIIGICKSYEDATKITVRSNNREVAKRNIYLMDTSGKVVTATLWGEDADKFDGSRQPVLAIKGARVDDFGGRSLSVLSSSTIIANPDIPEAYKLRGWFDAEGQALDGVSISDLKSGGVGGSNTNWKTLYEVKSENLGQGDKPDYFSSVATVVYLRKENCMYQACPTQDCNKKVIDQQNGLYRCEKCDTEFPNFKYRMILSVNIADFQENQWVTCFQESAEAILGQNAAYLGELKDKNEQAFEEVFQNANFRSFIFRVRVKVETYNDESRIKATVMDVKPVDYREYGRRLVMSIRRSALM
RPA (wild type) (Homo sapiens), one chain, as listed by the source, chain 3 of 3: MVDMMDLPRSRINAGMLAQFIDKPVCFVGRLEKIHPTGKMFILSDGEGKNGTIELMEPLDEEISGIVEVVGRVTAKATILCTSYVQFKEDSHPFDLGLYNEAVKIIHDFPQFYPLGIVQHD

Among the data in PMC10212944 are binding result and Kd values, retold here.

For at least one entry, the source does not settle the construct or the ends of the probe. For part of these data: At least one verdict rests on a figure or table, not on a statement of the authors.

As usually defined, the Kd is the free concentration of one partner at which half of the binding sites on the other are occupied at equilibrium, for simple one-to-one binding.

“TTTTTTTTTTTTTTTTTTTTTTTTTTTTTTTTTTT [(dT)35]”: the binding result in data set [1] and in data set [2] was “binds” each time. Also, in data set [3], the Kd was 3.4 nM.
